In PubChem BioAssay AID540256 (National Center for Advancing Translational Sciences (NCATS), 2011):
About 3,700 (1.2%) of roughly 300,000 compounds were called active. The inconclusive results got no clear call from the source; some entries with a clear call stand among them for comparison. The call rests on the fitted dose curve; tested in HEK293 cells. Potencies of inconclusive entries are doubtful fits and often do not repeat.

test: qHTS for Inhibitors of binding or entry into cells for Lassa Virus; conditions: Lassa virus pseudotype entry inhibition, cell reporter; activity change, negative = inhibition: at 37.9 µM (top of the series) unless noted; further: nearly all actives have a fitted effect of over 50% in size
On the % scale 0 is the no-effect control and ±100 the full control effect; potency means the concentration at half of the fitted maximal effect.

SMILES | Potency | activity change, negative = inhibition
Cc1ccc(-c2nc3ccccc3[nH]2)s1 | inconclusive: 35.5 µM [inhibitor, single point] | 
Cc1ccc(C)c(Cn2nnc3c(=O)[nH]c(C4CCN(S(=O)(=O)c5ccc(S(=O)(=O)NC6CC6)cc5)CC4)nc32)c1 | inconclusive: 17.8 µM [inhibitor, single point] | 
CN1CCN(c2ccc(Cl)cc2NC(=O)/C=C/c2ccc(F)cc2)CC1 | inconclusive: 35.5 µM [inhibitor, single point] | 
CCCn1ncc(CN2CCC(C(=O)Nc3cccc(-c4cccc(F)c4)c3)CC2)c1C | inconclusive: 35.5 µM [inhibitor, single point] | 
Cc1ccccc1N(CC(=O)NCc1ccccc1)C(=O)CCC(=O)Nc1nccs1 | inconclusive: 3.16 µM [inhibitor, partial curve, poor fit] | 
Cc1cccc(N2C(=O)C(Oc3ccc(Cl)cc3Cl)C2C=O)c1C (configuration not stated) | inconclusive: 20 µM [inhibitor, single point] | 
CCC(C)NC(=O)CN1C(=O)c2cccnc2Sc2ccccc21 (configuration not stated) |  | inactive: -5.83% [at 46.1 µM]
CCN(CC)CCN(C(=O)c1ccc2c(c1)OCCO2)c1nc2ccc(C)cc2s1 | inconclusive: 12.6 µM [activator, partial curve, poor fit] | 
CCn1c2ccccc2c2cc(NC(=O)c3ccccc3[N+](=O)[O-])ccc21 | inconclusive: 7.08 µM [inhibitor, partial curve, poor fit] | 
Cc1c(C(=O)Nc2ccccc2Br)oc2ccc(S(=O)(=O)N3CCCCCC3)cc12 |  | inactive: 21.7% [at 46.1 µM]
COc1ccc(C(=O)Nc2cccc(/C=C(/CCC(=O)O)c3nc4ccccc4s3)c2)cc1 |  | inactive: 14.6% [at 46.1 µM]
CN1CCC(N(C)c2nc(-c3ccc([N+](=O)[O-])cc3)nc3ccccc23)CC1 | inconclusive: 35.5 µM [inhibitor, single point] | 
CCOC(=O)Cc1csc(NC(=O)/C=C/c2ccccc2Cl)n1 | inconclusive: 20 µM [inhibitor, single point] | 
O=C(NCc1ccccc1)NC(=O)c1ccncc1 | inconclusive: 0.517 µM [activator, full curve] | 
COc1ccc2[nH]cc(CCN=C(NC(=O)c3ccccc3F)Nc3nc(C)cc(C)n3)c2c1 | inconclusive: 2 µM [inhibitor, full curve, poor fit] | 
C=CCn1c(SCC(=O)Nc2sccc2C(N)=O)nc2ccc(Cl)cc2c1=O | inconclusive: 35.5 µM [inhibitor, single point] | 
O=C(c1ccco1)c1cn(Cc2ccccc2Cl)c2ccccc12 | inconclusive: 23.1 µM [inhibitor, single point] | 
CC(C)Cn1c(SCc2nc3ccccc3c(=O)[nH]2)nc2ccccc2c1=O |  | inactive: 1.56%
CCN(CC)CCCNc1nc2ccccc2c2[nH]c3ccc(OC)cc3c12 | inconclusive: 35.5 µM [inhibitor, single point] | 
Cc1c(C(=O)N/N=C/c2cccnc2)sc(=S)n1C | inconclusive: 17.8 µM [activator, partial curve, poor fit] | 
COC(=O)c1ccc(-c2nc(O)c(C)s2)cc1 |  | inactive: 22.9% [at 46.1 µM]

SMILES | Potency | activity change, negative = inhibition
CN1CCC(n2cnc(-c3ccc(F)cc3)c2-c2ccnc(Nc3ccccc3)n2)CC1 | active: 15.8 µM | 
CCCCCN(C(=O)CCC(=O)OCCOc1ccccc1Cl)c1c(N)n(CCCC)c(=O)[nH]c1=O | inconclusive: 10 µM [inhibitor, partial curve, poor fit] | 
O=C(Nc1cccc(S(=O)(=O)N2CCOCC2)c1)c1cc2ccccc2o1 | inconclusive: 20 µM [inhibitor, single point] | 
Cc1cccc(-c2nn(-c3ccccc3)cc2C(=O)Nc2cccc(S(=O)(=O)NC3=NCCC3)c2)c1 |  | inactive: -1.45%
O=c1cc(-c2ccccc2)c2ccc3c(c2o1)CN(Cc1cccc(Cl)c1)CO3 |  | inactive: 4.05% [at 46.1 µM]
COC(=O)c1ccc2c(c1)C(C)(C)C(/C=C/c1ccc(OC)c(OC)c1OC)=[N+]2C | inconclusive: 35.5 µM [inhibitor, single point] | 
COc1ccc(OC)c(CN2CCN(C(=O)c3cc(S(=O)(=O)Nc4ccccc4OC)ccc3C)CC2)c1 | inconclusive: 0.794 µM [inhibitor, full curve, poor fit] | 
CC(=O)NS(=O)(=O)c1ccc(N)cc1 |  | inactive: -7.9%
Cc1c(C(=O)Nc2nc(-c3ccc(F)cc3)ns2)oc2ccc(Br)cc12 | inconclusive: 1.26 µM [activator, single point] | 
CCOC(=O)NCC(C#CCN(CC)CC)N(CC)CC (configuration not stated) |  | inactive: -9.06%
CCOc1ccccc1C(=O)N1CCN(c2cccc(Cl)c2)CC1 | inconclusive: 0.116 µM [inhibitor, full curve, poor fit] | 
O=C1/C(=C\c2ccc(O)cc2)CCC1CNc1ccc(Cl)cc1 (configuration not stated) |  | inactive: -15%
O=C1Cc2cc(S(=O)(=O)Nc3ccc(N4CCOCC4)cc3)ccc2N1 | inconclusive: 7.08 µM [inhibitor, partial curve] | 
CC(C)Oc1cccc(C(=O)C2CCCN(C(=O)CCc3cnn(C)c3)C2)c1 (configuration not stated) |  | inactive: -25.7%
CC/C(=N\NC(=S)Nc1ccc(OC)cc1)c1ccc(OC(F)F)cc1 | inconclusive: 2.06 µM [inhibitor, full curve] | 
CCc1cccc(N(C)C(N)=Nc2cccc3ccccc23)c1 | active: 13 µM | 
CCCOc1ccc(-c2nc3ccccc3c(=O)o2)cc1 | inconclusive: 6.31 µM [activator, single point] | 
C=CCN1C(=O)S/C(=C\c2ccc3c(c2)n(C)c(=O)n3C)C1=O | inconclusive: 11.2 µM [activator, partial curve, poor fit] | 
COc1cccc(CNC(=O)CCC2CCCN(C/C=C/c3ccccc3OC)C2)c1 (configuration not stated) | inconclusive: 25.1 µM [inhibitor, single point] | 
COc1cc(C(=O)NCCOC(=O)c2cccc(N(C)C)c2)cc(OC)c1OC | inconclusive: 0.891 µM [activator, full curve, poor fit] | 
CC(C)C1C(=O)N(Cc2cn(CCC3OCCO3)nn2)CCS(=O)(=O)N1Cc1ccc(-c2ccncc2)cc1 (configuration not stated) | inconclusive: 0.0177 µM [activator, full curve, poor fit] | 

Whole records, quoted from the list.
O=C1/C(=C\c2ccc(O)cc2)CCC1CNc1ccc(Cl)cc1 (configuration not stated) as listed: activity change, negative = inhibition: inactive: -15%
O=C(Nc1cccc(S(=O)(=O)N2CCOCC2)c1)c1cc2ccccc2o1 as listed: Potency: inconclusive: 20 µM [inhibitor, single point]
C=CCN1C(=O)S/C(=C\c2ccc3c(c2)n(C)c(=O)n3C)C1=O as listed: Potency: inconclusive: 11.2 µM [activator, partial curve, poor fit]
